Reference: doi:10.1101/2023.10.09.561576

Sequences of proteins named here, by UniProt entry; tags and fusion partners are left off.
UniProt Q96P20: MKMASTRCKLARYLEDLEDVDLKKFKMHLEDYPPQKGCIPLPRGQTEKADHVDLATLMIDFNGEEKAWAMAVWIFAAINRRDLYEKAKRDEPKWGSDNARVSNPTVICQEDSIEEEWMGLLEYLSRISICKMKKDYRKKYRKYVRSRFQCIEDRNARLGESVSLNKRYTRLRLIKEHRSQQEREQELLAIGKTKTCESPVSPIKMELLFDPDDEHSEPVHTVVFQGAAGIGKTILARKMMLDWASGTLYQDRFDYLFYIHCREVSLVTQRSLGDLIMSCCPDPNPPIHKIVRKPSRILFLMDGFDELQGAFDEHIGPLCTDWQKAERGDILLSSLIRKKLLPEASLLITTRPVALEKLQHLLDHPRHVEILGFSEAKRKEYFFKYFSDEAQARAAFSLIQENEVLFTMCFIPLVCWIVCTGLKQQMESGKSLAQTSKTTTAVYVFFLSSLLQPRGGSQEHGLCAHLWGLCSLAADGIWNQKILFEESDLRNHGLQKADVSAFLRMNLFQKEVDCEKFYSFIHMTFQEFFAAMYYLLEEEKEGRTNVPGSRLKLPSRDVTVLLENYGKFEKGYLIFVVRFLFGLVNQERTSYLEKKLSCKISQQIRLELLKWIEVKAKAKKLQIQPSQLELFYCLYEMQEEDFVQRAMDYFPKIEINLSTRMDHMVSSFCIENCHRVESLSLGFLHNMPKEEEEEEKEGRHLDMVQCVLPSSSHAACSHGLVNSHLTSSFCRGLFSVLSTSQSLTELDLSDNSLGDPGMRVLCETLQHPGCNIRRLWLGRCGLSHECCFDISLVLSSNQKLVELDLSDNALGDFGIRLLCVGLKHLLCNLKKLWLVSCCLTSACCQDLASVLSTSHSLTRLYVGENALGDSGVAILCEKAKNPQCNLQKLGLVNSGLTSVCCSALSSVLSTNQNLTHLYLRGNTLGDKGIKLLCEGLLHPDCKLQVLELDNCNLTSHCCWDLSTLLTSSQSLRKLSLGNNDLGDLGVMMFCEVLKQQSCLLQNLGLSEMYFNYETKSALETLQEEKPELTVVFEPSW
UniProt O15372: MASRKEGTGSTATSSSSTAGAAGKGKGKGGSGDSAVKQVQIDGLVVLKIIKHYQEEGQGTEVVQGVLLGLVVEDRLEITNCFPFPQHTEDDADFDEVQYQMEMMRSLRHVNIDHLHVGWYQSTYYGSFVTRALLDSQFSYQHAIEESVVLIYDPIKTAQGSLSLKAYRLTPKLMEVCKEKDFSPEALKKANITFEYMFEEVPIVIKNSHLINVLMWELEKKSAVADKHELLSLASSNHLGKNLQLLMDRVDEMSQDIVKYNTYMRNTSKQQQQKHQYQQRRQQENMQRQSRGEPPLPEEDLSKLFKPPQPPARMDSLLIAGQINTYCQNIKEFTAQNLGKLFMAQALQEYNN
UniProt Q7Z434: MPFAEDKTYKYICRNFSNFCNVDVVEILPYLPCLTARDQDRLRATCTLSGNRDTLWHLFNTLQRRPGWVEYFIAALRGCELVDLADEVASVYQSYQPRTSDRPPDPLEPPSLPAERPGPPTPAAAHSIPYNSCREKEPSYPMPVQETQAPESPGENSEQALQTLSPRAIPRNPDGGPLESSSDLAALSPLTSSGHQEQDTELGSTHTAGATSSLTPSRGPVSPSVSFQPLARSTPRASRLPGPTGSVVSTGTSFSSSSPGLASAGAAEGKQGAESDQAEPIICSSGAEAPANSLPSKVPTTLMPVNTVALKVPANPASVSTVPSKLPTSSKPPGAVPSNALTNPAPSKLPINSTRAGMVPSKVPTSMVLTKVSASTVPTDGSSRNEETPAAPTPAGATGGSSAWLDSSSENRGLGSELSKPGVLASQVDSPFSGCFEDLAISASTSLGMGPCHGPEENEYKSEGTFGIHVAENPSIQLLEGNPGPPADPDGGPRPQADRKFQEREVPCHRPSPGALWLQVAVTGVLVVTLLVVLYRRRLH
UniProt Q96BN8: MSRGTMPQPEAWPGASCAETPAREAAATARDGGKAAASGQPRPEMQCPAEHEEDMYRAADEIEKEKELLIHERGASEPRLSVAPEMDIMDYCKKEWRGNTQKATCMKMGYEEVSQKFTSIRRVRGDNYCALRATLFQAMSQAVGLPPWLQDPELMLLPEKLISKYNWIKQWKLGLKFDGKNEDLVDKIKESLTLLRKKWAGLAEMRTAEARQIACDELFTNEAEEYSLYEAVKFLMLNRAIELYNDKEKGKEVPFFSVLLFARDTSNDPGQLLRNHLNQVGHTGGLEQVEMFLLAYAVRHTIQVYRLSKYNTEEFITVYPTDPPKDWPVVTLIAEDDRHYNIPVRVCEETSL
UniProt O94782: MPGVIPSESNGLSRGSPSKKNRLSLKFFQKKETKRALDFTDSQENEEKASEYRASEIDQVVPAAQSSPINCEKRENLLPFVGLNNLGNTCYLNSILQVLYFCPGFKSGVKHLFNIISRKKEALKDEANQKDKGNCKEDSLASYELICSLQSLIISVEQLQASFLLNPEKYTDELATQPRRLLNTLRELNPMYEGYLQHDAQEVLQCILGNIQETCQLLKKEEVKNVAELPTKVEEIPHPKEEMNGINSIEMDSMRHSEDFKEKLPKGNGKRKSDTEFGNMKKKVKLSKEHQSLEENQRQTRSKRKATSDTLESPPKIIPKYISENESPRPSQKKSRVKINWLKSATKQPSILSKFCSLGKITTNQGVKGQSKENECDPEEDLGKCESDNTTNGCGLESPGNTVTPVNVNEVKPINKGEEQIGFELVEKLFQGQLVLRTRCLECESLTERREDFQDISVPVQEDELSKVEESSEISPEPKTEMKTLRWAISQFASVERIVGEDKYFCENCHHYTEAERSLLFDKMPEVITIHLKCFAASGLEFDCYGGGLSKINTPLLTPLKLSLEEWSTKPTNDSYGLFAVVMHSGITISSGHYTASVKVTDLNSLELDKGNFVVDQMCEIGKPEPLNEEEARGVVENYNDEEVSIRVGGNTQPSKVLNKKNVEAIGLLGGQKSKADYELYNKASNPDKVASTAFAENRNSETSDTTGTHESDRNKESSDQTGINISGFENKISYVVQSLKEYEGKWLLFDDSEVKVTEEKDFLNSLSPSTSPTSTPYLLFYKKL
UniProt P45974: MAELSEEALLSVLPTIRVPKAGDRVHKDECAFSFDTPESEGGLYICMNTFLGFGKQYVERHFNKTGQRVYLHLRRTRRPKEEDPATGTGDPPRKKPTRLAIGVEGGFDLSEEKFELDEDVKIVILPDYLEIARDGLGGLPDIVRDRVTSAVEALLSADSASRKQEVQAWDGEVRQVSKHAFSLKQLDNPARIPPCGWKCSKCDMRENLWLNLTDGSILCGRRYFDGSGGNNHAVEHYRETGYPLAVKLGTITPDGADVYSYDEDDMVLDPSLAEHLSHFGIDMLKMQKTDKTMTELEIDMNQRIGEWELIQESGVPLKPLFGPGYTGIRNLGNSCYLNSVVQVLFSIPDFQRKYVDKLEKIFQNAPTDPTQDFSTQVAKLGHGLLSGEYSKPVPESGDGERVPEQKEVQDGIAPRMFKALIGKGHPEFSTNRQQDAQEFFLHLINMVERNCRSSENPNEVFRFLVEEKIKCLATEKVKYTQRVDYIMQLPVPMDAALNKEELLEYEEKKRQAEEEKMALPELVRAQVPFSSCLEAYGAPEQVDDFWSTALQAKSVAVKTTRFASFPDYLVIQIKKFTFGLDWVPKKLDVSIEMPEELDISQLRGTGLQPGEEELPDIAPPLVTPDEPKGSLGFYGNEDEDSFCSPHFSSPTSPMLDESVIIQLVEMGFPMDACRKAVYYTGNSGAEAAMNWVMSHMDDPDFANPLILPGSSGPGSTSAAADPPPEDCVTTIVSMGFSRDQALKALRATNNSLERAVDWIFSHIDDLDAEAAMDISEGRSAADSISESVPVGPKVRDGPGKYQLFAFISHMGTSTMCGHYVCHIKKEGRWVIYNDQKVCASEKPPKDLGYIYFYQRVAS
UniProt Q93008: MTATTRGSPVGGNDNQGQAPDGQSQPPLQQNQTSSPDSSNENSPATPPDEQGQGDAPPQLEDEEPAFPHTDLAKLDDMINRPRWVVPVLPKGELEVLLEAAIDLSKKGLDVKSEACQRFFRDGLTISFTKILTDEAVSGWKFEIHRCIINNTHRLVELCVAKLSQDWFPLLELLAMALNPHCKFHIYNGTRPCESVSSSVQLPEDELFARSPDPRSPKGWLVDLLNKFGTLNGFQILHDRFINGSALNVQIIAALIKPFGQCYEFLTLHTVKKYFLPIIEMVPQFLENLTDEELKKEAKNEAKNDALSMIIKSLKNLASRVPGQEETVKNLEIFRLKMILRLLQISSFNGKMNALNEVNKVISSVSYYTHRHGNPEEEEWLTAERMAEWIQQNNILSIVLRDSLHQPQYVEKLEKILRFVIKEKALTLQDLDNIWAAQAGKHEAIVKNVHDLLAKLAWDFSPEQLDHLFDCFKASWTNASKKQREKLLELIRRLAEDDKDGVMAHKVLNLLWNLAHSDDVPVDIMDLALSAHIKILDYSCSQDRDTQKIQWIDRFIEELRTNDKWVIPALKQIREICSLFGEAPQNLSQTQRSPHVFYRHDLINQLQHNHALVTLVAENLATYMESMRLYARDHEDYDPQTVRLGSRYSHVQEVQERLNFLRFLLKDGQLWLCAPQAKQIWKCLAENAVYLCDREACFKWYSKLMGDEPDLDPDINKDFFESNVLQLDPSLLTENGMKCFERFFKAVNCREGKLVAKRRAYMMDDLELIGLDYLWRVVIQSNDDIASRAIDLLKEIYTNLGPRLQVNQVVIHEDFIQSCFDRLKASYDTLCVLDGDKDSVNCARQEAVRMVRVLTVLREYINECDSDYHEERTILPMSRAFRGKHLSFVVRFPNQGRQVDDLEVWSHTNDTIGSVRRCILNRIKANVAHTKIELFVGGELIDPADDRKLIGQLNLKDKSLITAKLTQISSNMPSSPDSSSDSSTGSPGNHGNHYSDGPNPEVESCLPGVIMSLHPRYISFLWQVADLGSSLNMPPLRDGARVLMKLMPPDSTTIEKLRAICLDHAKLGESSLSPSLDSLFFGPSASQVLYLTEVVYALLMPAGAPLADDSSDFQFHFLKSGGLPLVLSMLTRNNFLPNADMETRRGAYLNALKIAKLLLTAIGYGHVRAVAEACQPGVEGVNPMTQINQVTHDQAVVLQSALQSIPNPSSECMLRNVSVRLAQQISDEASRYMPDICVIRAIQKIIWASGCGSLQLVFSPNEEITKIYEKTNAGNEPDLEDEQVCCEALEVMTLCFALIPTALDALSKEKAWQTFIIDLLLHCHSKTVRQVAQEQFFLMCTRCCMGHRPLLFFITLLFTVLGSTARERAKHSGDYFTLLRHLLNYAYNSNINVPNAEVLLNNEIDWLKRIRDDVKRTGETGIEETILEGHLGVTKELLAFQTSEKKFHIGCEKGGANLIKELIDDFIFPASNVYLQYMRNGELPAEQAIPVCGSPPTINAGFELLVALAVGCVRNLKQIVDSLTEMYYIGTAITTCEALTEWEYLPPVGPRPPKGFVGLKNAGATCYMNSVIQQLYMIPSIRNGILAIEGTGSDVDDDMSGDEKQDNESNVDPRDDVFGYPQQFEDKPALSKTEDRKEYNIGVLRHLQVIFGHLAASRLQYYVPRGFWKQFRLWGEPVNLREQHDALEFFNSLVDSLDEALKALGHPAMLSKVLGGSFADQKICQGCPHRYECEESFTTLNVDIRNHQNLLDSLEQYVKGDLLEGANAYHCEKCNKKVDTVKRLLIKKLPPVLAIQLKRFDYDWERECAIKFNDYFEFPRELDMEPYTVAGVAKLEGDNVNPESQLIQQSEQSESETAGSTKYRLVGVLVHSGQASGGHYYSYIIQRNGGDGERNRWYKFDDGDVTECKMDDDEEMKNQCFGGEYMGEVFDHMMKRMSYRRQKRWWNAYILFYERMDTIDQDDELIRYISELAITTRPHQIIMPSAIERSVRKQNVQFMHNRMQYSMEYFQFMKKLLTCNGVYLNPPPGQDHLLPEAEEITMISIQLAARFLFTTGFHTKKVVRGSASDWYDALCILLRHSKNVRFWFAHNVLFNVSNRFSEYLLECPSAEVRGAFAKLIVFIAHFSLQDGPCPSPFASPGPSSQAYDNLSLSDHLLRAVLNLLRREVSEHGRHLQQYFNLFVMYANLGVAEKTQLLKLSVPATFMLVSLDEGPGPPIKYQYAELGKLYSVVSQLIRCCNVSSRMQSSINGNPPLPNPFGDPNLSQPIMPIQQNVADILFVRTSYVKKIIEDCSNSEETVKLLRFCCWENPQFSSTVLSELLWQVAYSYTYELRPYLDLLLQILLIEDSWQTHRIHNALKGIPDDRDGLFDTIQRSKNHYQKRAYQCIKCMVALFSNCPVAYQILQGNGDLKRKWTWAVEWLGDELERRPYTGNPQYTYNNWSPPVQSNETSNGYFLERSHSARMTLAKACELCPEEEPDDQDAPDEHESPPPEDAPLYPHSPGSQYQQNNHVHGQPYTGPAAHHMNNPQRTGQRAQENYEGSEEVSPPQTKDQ

Target: flag-NLRP3-APEX2 (human) (UniProt Q96P20)
Assay: proximity labelling

Molecule | binding
EIF3H (from UniProt O15372 1-352) | binds
MAVS (from UniProt Q7Z434 1-540) | binds
OTULIN (from UniProt Q96BN8 1-352) (enzyme) | binds
USP1 (from UniProt O94782) (enzyme) | binds
USP5 (from UniProt P45974 1-858) (enzyme) | binds
USP9X (from UniProt Q93008 1-2554) (enzyme) | binds
USP24 (from UniProt Q9UPU5 1-2620) (enzyme) | binds
USP8 (enzyme, UniProt P40818 1-1118) MPAVASVPKELYLSSSLKDLNKKTEVKPEKISTKSYVHSALKIFKTAEECRLDRDEERAYVLYMKYVTVYNLIKKRPDFKQQQDYFHSILGPGNIKKAVEEAERLSESLKLRYEEAEVRKKLEEKDRQEEAQRLQQKRQETGREDGGTLAKGSLENVLDSKDKTQKSNGEKNEKCETKEKGAITAKELYTMMTDKNISLIIMDARRMQDYQDSCILHSLSVPEEAISPGVTASWIEAHLPDDSKDTWKKRGNVEYVVLLDWFSSAKDLQIGTTLRSLKDALFKWESKTVLRNEPLVLEGGYENWLLCYPQYTTNAKVTPPPRRQNEEVSISLDFTYPSLEESIPSKPAAQTPPASIEVDENIELISGQNERMGPLNISTPVEPVAASKSDVSPIIQPVPSIKNVPQIDRTKKPAVKLPEEHRIKSESTNHEQQSPQSGKVIPDRSTKPVVFSPTLMLTDEEKARIHAETALLMEKNKQEKELRERQQEEQKEKLRKEEQEQKAKKKQEAEENEITEKQQKAKEEMEKKESEQAKKEDKETSAKRGKEITGVKRQSKSEHETSDAKKSVEDRGKRCPTPEIQKKSTGDVPHTSVTGDSGSGKPFKIKGQPESGILRTGTFREDTDDTERNKAQREPLTRARSEEMGRIVPGLPSGWAKFLDPITGTFRYYHSPTNTVHMYPPEMAPSSAPPSTPPTHKAKPQIPAERDREPSKLKRSYSSPDITQAIQEEEKRKPTVTPTVNRENKPTCYPKAEISRLSASQIRNLNPVFGGSGPALTGLRNLGNTCYMNSILQCLCNAPHLADYFNRNCYQDDINRSNLLGHKGEVAEEFGIIMKALWTGQYRYISPKDFKITIGKINDQFAGYSQQDSQELLLFLMDGLHEDLNKADNRKRYKEENNDHLDDFKAAEHAWQKHKQLNESIIVALFQGQFKSTVQCLTCHKKSRTFEAFMYLSLPLASTSKCTLQDCLRLFSKEEKLTDNNRFYCSHCRARRDSLKKIEIWKLPPVLLVHLKRFSYDGRWKQKLQTSVDFPLENLDLSQYVIGPKNNLKKYNLFSVSNHYGGLDGGHYTAYCKNAARQRWFKFDDHEVSDISVSSVKSSAAYILFYTSLGPRVTDVAT | binds
USP47 (enzyme, UniProt Q96K76 1-1375) MVPGEENQLVPKEDVFWRCRQNIFDEMKKKFLQIENAAEEPRVLCIIQDTTNSKTVNERITLNLPASTPVRKLFEDVANKVGYINGTFDLVWGNGINTADMAPLDHTSDKSLLDANFEPGKKNFLHLTDKDGEQPQILLEDSSAGEDSVHDRFIGPLPREGSGGSTSDYVSQSYSYSSILNKSETGYVGLVNQAMTCYLNSLLQTLFMTPEFRNALYKWEFEESEEDPVTSIPYQLQRLFVLLQTSKKRAIETTDVTRSFGWDSSEAWQQHDVQELCRVMFDALEQKWKQTEQADLINELYQGKLKDYVRCLECGYEGWRIDTYLDIPLVIRPYGSSQAFASVEEALHAFIQPEILDGPNQYFCERCKKKCDARKGLRFLHFPYLLTLQLKRFDFDYTTMHRIKLNDRMTFPEELDMSTFIDVEDEKSPQTESCTDSGAENEGSCHSDQMSNDFSNDDGVDEGICLETNSGTEKISKSGLEKNSLIYELFSVMVHSGSAAGGHYYACIKSFSDEQWYSFNDQHVSRITQEDIKKTHGGSSGSRGYYSSAFASSTNAYMLIYRLKDPARNAKFLEVDEYPEHIKNLVQKERELEEQEKRQREIERNTCKIKLFCLHPTKQVMMENKLEVHKDKTLKEAVEMAYKMMDLEEVIPLDCCRLVKYDEFHDYLERSYEGEEDTPMGLLLGGVKSTYMFDLLLETRKPDQVFQSYKPGEVMVKVHVVDLKAESVAAPITVRAYLNQTVTEFKQLISKAIHLPAETMRIVLERCYNDLRLLSVSSKTLKAEGFFRSNKVFVESSETLDYQMAFADSHLWKLLDRHANTIRLFVLLPEQSPVSYSKRTAYQKAGGDSGNVDDDCERVKGPVGSLKSVEAILEESTEKLKSLSLQQQQDGDNGDSSKSTETSDFENIESPLNERDSSASVDNRELEQHIQTSDPENFQSEERSDSDVNNDRSTSSVDSDILSSSHSSDTLCNADNAQIPLANGLDSHSITSSRRTKANEGKKETWDTAEEDSGTDSEYDESGKSRGEMQYMYFKAEPYAADEGSGEGHKWLMVHVDKRITLAAFKQHLEPFVGVLSSHFKVFRVYASNQEFESVRLNETLSSFSDDNKITIRLGRALKKGEYRVKVYQLLVNEQEPCKFLLDAVFAKGMTVRQSKEELIPQLREQCGLELSIDRFRLRKKTWKNPGTVFLDYHIYEEDINISSNWEVFLEVLDGVEKMKSMSQLAVLSRRWKPSEMKLDPFQEVVLESSSVDELREKLSEISGIPLDDIEFAKGRGTFPCDISVLDIHQDLDWNPKVSTLNVWPLYICDDGAVIFYRDKTEELMELTDEQRNELMKKESSRLQKTGHRVTYSPRKEKALKIYLDGAPNKDLTQD | binds
USP19 (enzyme, UniProt O94966 1-1318) MSGGASATGPRRGPPGLEDTTSKKKQKDRANQESKDGDPRKETGSRYVAQAGLEPLASGDPSASASHAAGITGSRHRTRLFFPSSSGSASTPQEEQTKEGACEDPHDLLATPTPELLLDWRQSAEEVIVKLRVGVGPLQLEDVDAAFTDTDCVVRFAGGQQWGGVFYAEIKSSCAKVQTRKGSLLHLTLPKKVPMLTWPSLLVEADEQLCIPPLNSQTCLLGSEENLAPLAGEKAVPPGNDPVSPAMVRSRNPGKDDCAKEEMAVAADAATLVDEPESMVNLAFVKNDSYEKGPDSVVVHVYVKEICRDTSRVLFREQDFTLIFQTRDGNFLRLHPGCGPHTTFRWQVKLRNLIEPEQCTFCFTASRIDICLRKRQSQRWGGLEAPAARVGGAKVAVPTGPTPLDSTPPGGAPHPLTGQEEARAVEKDKSKARSEDTGLDSVATRTPMEHVTPKPETHLASPKPTCMVPPMPHSPVSGDSVEEEEEEEKKVCLPGFTGLVNLGNTCFMNSVIQSLSNTRELRDFFHDRSFEAEINYNNPLGTGGRLAIGFAVLLRALWKGTHHAFQPSKLKAIVASKASQFTGYAQHDAQEFMAFLLDGLHEDLNRIQNKPYTETVDSDGRPDEVVAEEAWQRHKMRNDSFIVDLFQGQYKSKLVCPVCAKVSITFDPFLYLPVPLPQKQKVLPVFYFAREPHSKPIKFLVSVSKENSTASEVLDSLSQSVHVKPENLRLAEVIKNRFHRVFLPSHSLDTVSPSDTLLCFELLSSELAKERVVVLEVQQRPQVPSVPISKCAACQRKQQSEDEKLKRCTRCYRVGYCNQLCQKTHWPDHKGLCRPENIGYPFLVSVPASRLTYARLAQLLEGYARYSVSVFQPPFQPGRMALESQSPGCTTLLSTGSLEAGDSERDPIQPPELQLVTPMAEGDTGLPRVWAAPDRGPVPSTSGISSEMLASGPIEVGSLPAGERVSRPEAAVPGYQHPSEAMNAHTPQFFIYKIDSSNREQRLEDKGDTPLELGDDCSLALVWRNNERLQEFVLVASKELECAEDPGSAGEAARAGHFTLDQCLNLFTRPEVLAPEEAWYCPQCKQHREASKQLLLWRLPNVLIVQLKRFSFRSFIWRDKINDLVEFPVRNLDLSKFCIGQKEEQLPSYDLYAVINHYGGMIGGHYTACARLPNDRSSQRSDVGWRLFDDSTVTTVDESQVVTRYAYVLFYRRRNSPVERPPRAGHSEHHPDLGPAAEAAASQASRIWQELEAEEEPVPEGSGPLGPWGPQDWVGPLPRGPTTPDEGCLRYFVLGTVAALVALVLNVFYPLVSQSRWR | binds
USP15 (enzyme, UniProt Q9Y4E8 1-981) MAEGGAADLDTQRSDIATLLKTSLRKGDTWYLVDSRWFKQWKKYVGFDSWDKYQMGDQNVYPGPIDNSGLLKDGDAQSLKEHLIDELDYILLPTEGWNKLVSWYTLMEGQEPIARKVVEQGMFVKHCKVEVYLTELKLCENGNMNNVVTRRFSKADTIDTIEKEIRKIFSIPDEKETRLWNKYMSNTFEPLNKPDSTIQDAGLYQGQVLVIEQKNEDGTWPRGPSTPKSPGASNFSTLPKISPSSLSNNYNNMNNRNVKNSNYCLPSYTAYKNYDYSEPGRNNEQPGLCGLSNLGNTCFMNSAIQCLSNTPPLTEYFLNDKYQEELNFDNPLGMRGEIAKSYAELIKQMWSGKFSYVTPRAFKTQVGRFAPQFSGYQQQDCQELLAFLLDGLHEDLNRIRKKPYIQLKDADGRPDKVVAEEAWENHLKRNDSIIVDIFHGLFKSTLVCPECAKISVTFDPFCYLTLPLPMKKERTLEVYLVRMDPLTKPMQYKVVVPKIGNILDLCTALSALSGIPADKMIVTDIYNHRFHRIFAMDENLSSIMERDDIYVFEININRTEDTEHVIIPVCLREKFRHSSYTHHTGSSLFGQPFLMAVPRNNTEDKLYNLLLLRMCRYVKISTETEETEGSLHCCKDQNINGNGPNGIHEEGSPSEMETDEPDDESSQDQELPSENENSQSEDSVGGDNDSENGLCTEDTCKGQLTGHKKRLFTFQFNNLGNTDINYIKDDTRHIRFDDRQLRLDERSFLALDWDPDLKKRYFDENAAEDFEKHESVEYKPPKKPFVKLKDCIELFTTKEKLGAEDPWYCPNCKEHQQATKKLDLWSLPPVLVVHLKRFSYSRYMRDKLDTLVDFPINDLDMSEFLINPNAGPCRYNLIAVSNHYGGMGGGHYTAFAKNKDDGKWYYFDDSSVSTASEDQIVSKAAYVLFYQRQDTFSGTGFFPLDRETKGASAATGIPLESDEDSNDNDNDIENENCMHTN | binds
PAN2 (enzyme, UniProt Q504Q3 1-1202) MNFEGLDPGLAEYAPAMHSALDPVLDAHLNPSLLQNVELDPEGVALEALPVQESVHIMEGVYSELHSVVAEVGVPVSVSHFDLHEEMLWVGSHGGHATSFFGPALERYSSFQVNGSDDIRQIQSLENGILFLTKNNLKYMARGGLIIFDYLLDENEDMHSLLLTDSSTLLVGGLQNHIIEIDLNTVQETQKYAVETPGVTIMRQTNRFFFCGHTSGKVSLRDLRTFKVEHEFDAFSGSLSDFDVHGNLLAACGFSSRLTGLACDRFLKVYDLRMMRAITPLQVHVDPAFLRFIPTYTSRLAIISQSGQCQFCEPTGLANPADIFHVNPVGPLLMTFDVSASKQALAFGDSEGCVHLWTDSPEPSFNPYSRETEFALPCLVDSLPPLDWSQDLLPLSLIPVPLTTDTLLSDWPAANSAPAPRRAPPVDAEILRTMKKVGFIGYAPNPRTRLRNQIPYRLKESDSEFDSFSQVTESPVGREEEPHLHMVSKKYRKVTIKYSKLGLEDFDFKHYNKTLFAGLEPHIPNAYCNCMIQVLYFLEPVRCLIQNHLCQKEFCLACELGFLFHMLDLSRGDPCQGNNFLRAFRTIPEASALGLILADSDEASGKGNLARLIQRWNRFILTQLHQDMQELEIPQAYRGAGGSSFCSSGDSVIGQLFSCEMENCSLCRCGSETVRASSTLLFTLSYPDGSKSDKTGKNYDFAQVLKRSICLDQNTQAWCDTCEKYQPTIQTRNIRHLPDILVINCEVNSSKEADFWRMQAEVAFKMAVKKHGGEISKNKEFALADWKELGSPEGVLVCPSIEELKNVWLPFSIRMKMTKNKGLDVCNWTDGDEMQWGPARAEEEHGVYVYDLMATVVHILDSRTGGSLVAHIKVGETYHQRKEGVTHQQWYLFNDFLIEPIDKHEAVQFDMNWKVPAILYYVKRNLNSRYNLNIKNPIEASVLLAEASLARKQRKTHTTFIPLMLNEMPQIGDLVGLDAEFVTLNEEEAELRSDGTKSTIKPSQMSVARITCVRGQGPNEGIPFIDDYISTQEQVVDYLTQYSGIKPGDLDAKISSKHLTTLKSTYLKLRFLIDIGVKFVGHGLQKDFRVINLMVPKDQVLDTVYLFHMPRKRMISLRFLAWYFLDLKIQGETHDSIEDARTALQLYRKYLELSKNGTEPESFHKVLKGLYEKGRKMDWKVPEPEGQTSPKNAAVFSSVLAL | binds

No constants are given. Whether binding was seen depends on the method and setting. In cells and extracts the contact can be indirect. Here binding means that the protein was enriched with, or labelled near, the bait; the list need not be complete.
